Laboratory results: PubChem BioAssay AID652243 (Drosophila RNAi Screening Center, 2013)

- Assay: 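Knock-downs that decrease or increase androgen receptor reporter signal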 (primary screen)
- System: Drosophila S2R+ cells
- Reagents: long dsRNA against Drosophila genes
- Duration: 72 h (48 h, then 24 h hormone)
- Conditions: synthetic androgen R1881 at 10 nM for 24 h
- Detection: 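Firefly light from an androgen-responsive reporter and Renilla control light per well, raw and unnormalised, for each of two replicates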
- Reading the numbers: firefly reporter light: higher = more light from androgen-responsive reporter; Renilla control light: higher = more constitutive control signal (cell number, transfection)
- Active means: 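Across duplicate plates, a knock-down whose log firefly/Renilla ratio shifted a set fold down or up from the GFP/LacZ control mean was a hit; the downward cut appears as both 1.5 and 3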
- Calls: active = hit: reporter lowered or raised; inactive = no hit
The screen tested about 24,000 reagents; shown is a random part of those that have a named target and a result. Over the whole deposit, 246 (1%) got an active call. 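Plates not normalised; calls are printed but the firefly/Renilla ratio behind them is not deposited; fold cut for lowering reported inconsistently.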 Raw values are not corrected between plates. Names joined by + are all predicted targets of the reagent. Not given: the amount of reagent.

| target gene | DRSC id | firefly reporter light, replicate 1 | firefly reporter light, replicate 2 | Renilla control light, replicate 1 | Renilla control light, replicate 2 | outcome |
| --- | --- | --- | --- | --- | --- | --- |
| CG34117 (GeneID 4379851) | DRSC38703 | 4.68e5 | 4.82e5 | 1.37e6 | 1.22e6 | inactive |
| CG13920 (GeneID 38203) | DRSC08389 | 1.72e6 | 1.50e6 | 2.50e6 | 2.07e6 | inactive |
| CG13737 (GeneID 39531) | DRSC10064 | 2.07e5 | 2.12e5 | 3.02e6 | 2.39e6 | inactive |
| CG4896 (GeneID 33305) | DRSC00671 | 7.99e5 | 1.04e6 | 1.70e6 | 1.39e6 | inactive |
| CG4896 (GeneID 33305) | DRSC24570 | 7.50e5 | 7.15e5 | 8.63e5 | 9.26e5 | inactive |
| CG9899 (GeneID 37676) | DRSC04597 | 3.06e5 | 3.17e5 | 2.45e6 | 1.72e6 | inactive |
| Nf-YC (GeneID 31622) | DRSC23106 | 6.24e5 | 7.92e5 | 1.24e6 | 1.32e6 | inactive |
| CG15283 (GeneID 50454) | DRSC01980 | 1.59e5 | 1.97e5 | 1.84e6 | 2.34e6 | inactive |
| snoRNA:Me18S-C1280 (retired record) (GeneID 5740487) | DRSC26813 | 3.33e5 | 2.93e5 | 1.07e6 | 6.51e5 | inactive |
| fu (GeneID 32855) | DRSC20333 | 1.84e5 | 1.03e5 | 1.20e6 | 2.93e5 | inactive |
| fu (GeneID 32855) | DRSC27965 | 8.40e5 | 7.25e5 | 2.35e6 | 1.16e6 | inactive |
| fu (GeneID 32855) | DRSC36607 | – | – | – | – | inactive |
| speck (GeneID 37867) | DRSC04608 | 4.79e5 | 4.92e5 | 1.41e6 | 1.29e6 | inactive |
| speck (GeneID 37867) | DRSC27654 | 3.46e5 | 4.76e5 | 4.87e5 | 8.67e5 | inactive |
| CG30271 (GeneID 246518) | DRSC04170 | 2.93e5 | 3.18e5 | 1.79e6 | 1.93e6 | inactive |
| CG30271 (GeneID 246518) | DRSC30044 | 1.08e6 | 9.44e5 | 9.94e5 | 1.12e6 | inactive |
| Epac (GeneID 35588) | DRSC04969 | 4.29e5 | 3.88e5 | 3.02e6 | 3.66e6 | inactive |
| Epac (GeneID 35588) | DRSC04996 | 1.20e6 | 1.00e6 | 2.34e6 | 2.27e6 | inactive |
| Epac (GeneID 35588) | DRSC04997 | 3.64e5 | 3.15e5 | 2.00e6 | 1.52e6 | inactive |
| gNacalpha (GeneID 33279) | DRSC00654 | 77819 | 63624 | 6.64e5 | 7.01e5 | inactive |
| gNacalpha (GeneID 33279) | DRSC29840 | 3.67e5 | 3.12e5 | 1.10e6 | 1.15e6 | inactive |
| Top1 (GeneID 32458) | DRSC20295 | 2.30e5 | 2.70e5 | 2.48e6 | 2.98e6 | inactive |
| Usp1 (GeneID 43462) | DRSC14155 | 1.43e5 | 1.08e5 | 1.30e6 | 9.51e5 | inactive |
| lncRNA:CR43314 (GeneID 12798160) | DRSC21354 | 7.81e5 | 6.54e5 | 1.80e6 | 1.53e6 | inactive |
| lncRNA:CR43314 (GeneID 12798160) | DRSC29259 | 4.48e5 | 6.97e5 | 1.32e6 | 1.31e6 | inactive |
| Nost (GeneID 8673992) | DRSC18037 | 4.47e5 | 6.27e5 | 1.88e6 | 1.97e6 | inactive |
| Nost (GeneID 8673992) | DRSC18338 | 4.33e5 | 3.08e5 | 3.73e6 | 3.13e6 | inactive |
| Nost (GeneID 8673992) | DRSC26627 | 4.96e5 | 3.42e5 | 8.76e5 | 8.12e5 | inactive |
| Nost (GeneID 8673992) | DRSC38617 | 1.08e6 | 6.83e5 | 2.40e6 | 1.52e6 | inactive |
| hydra (GeneID 33058) | DRSC20497 | 2.07e5 | 1.56e5 | 6.24e5 | 4.98e5 | inactive |
| IP3K1 + hpRNA:CR18854 | DRSC23313 | 5.84e5 | 5.39e5 | 1.56e6 | 1.47e6 | inactive |
| Lcp4 (GeneID 35820) | DRSC07458 | 4.98e5 | 4.11e5 | 2.79e6 | 1.94e6 | inactive |
| Lcp4 (GeneID 35820) | DRSC25194 | 3.47e5 | 5.02e5 | 3.26e5 | 4.64e5 | inactive |
| ppk20 (GeneID 43486) | DRSC16260 | 1.95e5 | 1.87e5 | 2.36e6 | 2.43e6 | inactive |
| ppk20 (GeneID 43486) | DRSC28819 | 4.35e5 | 5.46e5 | 1.44e6 | 1.73e6 | inactive |
| CG42284 (GeneID 37621) | DRSC22094 | 5.75e5 | 5.50e5 | 8.59e5 | 8.05e5 | inactive |
| CG42284 (GeneID 37621) | DRSC22342 | 6.26e5 | 7.73e5 | 1.55e6 | 7.89e5 | inactive |
| cnir (GeneID 33520) | DRSC00499 | 1.68e5 | 1.10e5 | 1.15e6 | 8.96e5 | inactive |
| cnir (GeneID 33520) | DRSC26787 | 5.01e5 | 3.87e5 | 9.39e5 | 8.50e5 | inactive |
| antr (GeneID 246647) | DRSC22392 | 1.92e5 | 7.26e5 | 7.84e5 | 1.59e6 | inactive |
| Rab23 (GeneID 40701) | DRSC12305 | 69101 | 1.07e5 | 1.39e6 | 1.02e6 | inactive |
| Rab23 (GeneID 40701) | DRSC25339 | 4.54e5 | 4.31e5 | 5.04e5 | 5.08e5 | inactive |
| Polr1B (GeneID 33210) | DRSC00780 | 6.67e5 | 9.25e5 | 1.58e6 | 1.22e6 | inactive |
| Adgf-D (GeneID 41679) | DRSC16521 | 1.21e5 | 1.22e5 | 1.84e6 | 1.64e6 | inactive |
| CG9040 (GeneID 39546) | DRSC11053 | 1.93e5 | 1.55e5 | 2.81e6 | 1.67e6 | inactive |
| CG15528 (GeneID 43575) | DRSC15065 | 1.96e5 | 1.65e5 | 2.73e6 | 3.34e6 | inactive |
| Gr9a (GeneID 318158) | DRSC22506 | 5.08e5 | 9.32e5 | 1.31e6 | 2.24e6 | inactive |
| CG4744 (GeneID 36485) | DRSC06887 | 1.20e6 | 9.66e5 | 2.52e6 | 2.41e6 | inactive |
| CG4744 (GeneID 36485) | DRSC28696 | 6.08e5 | 4.36e5 | 1.23e6 | 1.17e6 | inactive |
| lectin-46Ca (GeneID 53523) | DRSC06612 | 4.42e5 | 4.19e5 | 2.50e6 | 2.43e6 | inactive |
| lectin-46Ca (GeneID 53523) | DRSC25469 | 2.43e5 | 3.05e5 | 4.38e5 | 4.28e5 | inactive |
| CG7196 (retired record) (GeneID 34057) | DRSC01000 | 1.96e5 | 1.89e5 | 1.03e6 | 8.39e5 | inactive |
| CG7196 (retired record) (GeneID 34057) | DRSC03023 | 94939 | 1.15e5 | 1.27e6 | 1.20e6 | inactive |
| CG15890 (GeneID 32401) | DRSC19737 | 4.66e5 | 5.10e5 | 3.12e6 | 3.09e6 | inactive |
| gt (GeneID 31227) | DRSC23119 | 5.38e5 | 6.34e5 | 92340 | 1.06e5 | inactive |
| gt (GeneID 31227) | DRSC28482 | 3.32e5 | 6.31e5 | 8.44e5 | 1.16e6 | inactive |
| BBS8 (GeneID 33217) | DRSC00360 | 34967 | 34275 | 3.07e5 | 4.03e5 | inactive |
| BBS8 (GeneID 33217) | DRSC27758 | 6.46e5 | 4.70e5 | 7.89e5 | 9.33e5 | inactive |
